Test results reported in patent US20240287184A1.
Residue numbers refer to the chain shown, from its start. Results are given in words; binding and its absence hold for the method and conditions named. A result given as binding can be weak or reduced; the word gives no strength. Each block holds one binder with its values, some of them ahead of it.

Legend:
[1] = biological target: monkey PD1 expressed on the surface of CHO cells (CHO-cynoPD1) (monkey); assay: flow cytometry on CHO-cynoPD1 cells, compared with PD1-112-C2
[2] = biological target: monkey PD1 expressed on the surface of CHO cells (CHO-cynoPD1) (monkey); assay: flow cytometry on CHO-cynoPD1 cells

- binding [1]: binds
- binding [2]: binds
B1: anti-PD-1 humanized antibody c22 (antibody, V domains shown)
VH: QVQLVQSGAEVKKPGASVKVSCKASGYTFTTYYMYWVRQAPGQGLEWMGGINPSNGGTNFNEKFKSRVTMTVDKSTSTAYMELSSLRSEDTAVYYCTRRDSNYDGGFDYWGQGTTVTVSS
VL: DIQLTQSPSSLSASVGDRATITCRASKSVSTSGYSYMHWYQQKPGKAPKLLIYLAYHLESGVPSRFSGSGSGTDFTLTISSVQPEDFATYYCQHSWELPITFGQGTKLEIKR

- binding [1]: binds
- binding [2]: binds
B2: anti-PD-1 humanized antibody c53 (antibody, V domains shown)
VH: B1 VH with F60Y, N61A, E62Q, K65Q, S66G, V68A, K74T
VL: B1 VL with L4M, A19V, V82L

- binding [1]: binds
- binding [2]: binds
B3: anti-PD-1 humanized antibody c43 (antibody, V domains shown)
VH: B1 VH with M48I, F60Y, N61A, S66G, M70L, K74T
VL: B1 VL with L4M, A19V, V82L

- binding [2]: binds
B4: anti-PD-1 mouse monoclonal antibody PD-1-112-C2 (antibody, V domains shown)
VH: QVQLQQPGAELVKPGASVKLSCKASGYTFTTYYMYWVKQRPGQGLEWIGGINPSNGGTNFNEKFKSKATLTVDKSSSTAYMQLSSLTSEDSAVYYCTRRDSNYDGGFDYWGQGTTLTVSS
VL: DIVLTQSPASLAVSLGQRATISCRASKSVSTSGYSYMHWYQQKPGQPPKLLIYLAYHLESGVPARFSGSGSGTDFTLNIHPVEEEDAATYYCQHSWELPITFGSGTKLEIKR
